{
  "source": "PubChem BioAssay AID188",
  "about": "(DTP/NCI, 2004)",
  "system": "CD2F1 mice, nontumored, toxicity/survival",
  "assay": "NCI In Vivo Anticancer Drug Screen. Data for tumor model Nontumored Animals (Toxicity Test) in CD2F1 (CDF1) mice",
  "note": "The mice bore no tumour; each value counts animals alive of those treated. Survivors were counted at the toxicity check, usually on the fifth day, unless a day is given; later deaths do not show. Schedules are NCI's codes, taken here to give the interval after Q, in days (D) or hours (H), and the number of doses after X.",
  "data": [
    {"smiles": "COc1cccc2c1C(=O)c1c(O)c3c(c(O)c1C2=O)C[C@@](O)(/C(C)=N/NC(=O)c1ccccc1)C[C@@H]3OC1CC(N)C(O)C(C)O1", "note": "(some centres undefined)", "values": [
      {"measurement": "survivor count", "setting": "dose: 0.13 mg/kg/injection, schedule: Q03HX008 (ip), vehicle: water", "value": "8 of 8"},
      {"measurement": "survivor count", "setting": "dose: 0.13 mg/kg/injection, schedule: Q03HX016 (ip), vehicle: water", "value": "8 of 8"},
      {"measurement": "survivor count", "setting": "dose: 0.13 mg/kg/injection, schedule: Q03HX024 (ip), vehicle: water", "value": "8 of 8"},
      {"measurement": "survivor count", "setting": "dose: 0.25 mg/kg/injection, schedule: Q03HX008 (ip), vehicle: water", "value": "8 of 8"},
      {"measurement": "survivor count", "setting": "dose: 0.25 mg/kg/injection, schedule: Q03HX016 (ip), vehicle: water", "value": "8 of 8"},
      {"measurement": "survivor count", "setting": "dose: 0.25 mg/kg/injection, schedule: Q03HX024 (ip), vehicle: water", "value": "8 of 8"},
      {"measurement": "survivor count", "setting": "dose: 0.5 mg/kg/injection, schedule: Q01DX009 (ip), vehicle: water", "value": "8 of 8"},
      {"measurement": "survivor count", "setting": "dose: 0.5 mg/kg/injection, schedule: Q01DX009 (sc), vehicle: water", "value": "8 of 8"},
      {"measurement": "survivor count", "setting": "dose: 0.5 mg/kg/injection, schedule: Q03HX008 (ip), vehicle: water", "value": "8 of 8"},
      {"measurement": "survivor count", "setting": "dose: 0.5 mg/kg/injection, schedule: Q03HX016 (ip), vehicle: water", "value": "8 of 8"},
      {"measurement": "survivor count", "setting": "dose: 0.5 mg/kg/injection, schedule: Q03HX024 (ip), vehicle: water", "value": "8 of 8"},
      {"measurement": "survivor count", "setting": "dose: 1.0 mg/kg/injection, schedule: Q01DX001 (ip), vehicle: water", "value": "8 of 8"},
      {"measurement": "survivor count", "setting": "dose: 1.0 mg/kg/injection, schedule: Q01DX001 (sc), vehicle: water", "value": "8 of 8"},
      {"measurement": "survivor count", "setting": "dose: 1.0 mg/kg/injection, schedule: Q01DX009 (ip), vehicle: other", "value": "8 of 8"},
      {"measurement": "survivor count", "setting": "dose: 1.0 mg/kg/injection, schedule: Q01DX009 (ip), vehicle: water", "value": "8 of 8"},
      {"measurement": "survivor count", "setting": "dose: 1.0 mg/kg/injection, schedule: Q01DX009 (sc), vehicle: water", "value": "8 of 8"},
      {"measurement": "survivor count", "setting": "dose: 1.0 mg/kg/injection, schedule: Q03HX008 (ip), vehicle: water", "value": "8 of 8"},
      {"measurement": "survivor count", "setting": "dose: 1.0 mg/kg/injection, schedule: Q03HX016 (ip), vehicle: water", "value": "8 of 8"},
      {"measurement": "survivor count", "setting": "dose: 1.0 mg/kg/injection, schedule: Q03HX024 (ip), vehicle: water", "value": "8 of 8"},
      {"measurement": "survivor count", "setting": "dose: 1.0 mg/kg/injection, schedule: Q04DX003 (ip), vehicle: water", "value": "8 of 8"},
      {"measurement": "survivor count", "setting": "dose: 1.0 mg/kg/injection, schedule: Q08DX002 (ip), vehicle: water", "value": "8 of 8"},
      {"measurement": "survivor count", "setting": "dose: 2.0 mg/kg/injection, schedule: Q01DX001 (ip), vehicle: water", "value": "8 of 8"},
      {"measurement": "survivor count", "setting": "dose: 2.0 mg/kg/injection, schedule: Q01DX001 (sc), vehicle: water", "value": "8 of 8"},
      {"measurement": "survivor count", "setting": "dose: 2.0 mg/kg/injection, schedule: Q01DX009 (ip), vehicle: other", "value": "8 of 8"},
      {"measurement": "survivor count", "setting": "dose: 2.0 mg/kg/injection, schedule: Q01DX009 (ip), vehicle: water", "value": "8 of 8"},
      {"measurement": "survivor count", "setting": "dose: 2.0 mg/kg/injection, schedule: Q01DX009 (sc), vehicle: water", "value": "8 of 8"},
      {"measurement": "survivor count", "setting": "dose: 2.0 mg/kg/injection, schedule: Q03HX008 (ip), vehicle: water", "value": "8 of 8"},
      {"measurement": "survivor count", "setting": "dose: 2.0 mg/kg/injection, schedule: Q03HX016 (ip), vehicle: water", "value": "8 of 8"},
      {"measurement": "survivor count", "setting": "dose: 2.0 mg/kg/injection, schedule: Q03HX024 (ip), vehicle: water", "value": "8 of 8"},
      {"measurement": "survivor count", "setting": "dose: 2.0 mg/kg/injection, schedule: Q04DX003 (ip), vehicle: water", "value": "8 of 8"},
      {"measurement": "survivor count", "setting": "dose: 2.0 mg/kg/injection, schedule: Q08DX002 (ip), vehicle: water", "value": "8 of 8"},
      {"measurement": "survivor count", "setting": "dose: 4.0 mg/kg/injection, schedule: Q01DX001 (ip), vehicle: water", "value": "8 of 8"},
      {"measurement": "survivor count", "setting": "dose: 4.0 mg/kg/injection, schedule: Q01DX001 (sc), vehicle: water", "value": "8 of 8"},
      {"measurement": "survivor count", "setting": "dose: 4.0 mg/kg/injection, schedule: Q01DX009 (ip), vehicle: other", "value": "8 of 8"},
      {"measurement": "survivor count", "setting": "dose: 4.0 mg/kg/injection, schedule: Q01DX009 (ip), vehicle: water", "value": "8 of 8"},
      {"measurement": "survivor count", "setting": "dose: 4.0 mg/kg/injection, schedule: Q01DX009 (oral), vehicle: water", "value": "8 of 8"},
      {"measurement": "survivor count", "setting": "dose: 4.0 mg/kg/injection, schedule: Q01DX009 (sc), vehicle: water", "value": "8 of 8"},
      {"measurement": "survivor count", "setting": "dose: 4.0 mg/kg/injection, schedule: Q03HX008 (ip), vehicle: water", "value": "8 of 8"},
      {"measurement": "survivor count", "setting": "dose: 4.0 mg/kg/injection, schedule: Q03HX016 (ip), vehicle: water", "value": "8 of 8"},
      {"measurement": "survivor count", "setting": "dose: 4.0 mg/kg/injection, schedule: Q03HX024 (ip), vehicle: water", "value": "8 of 8"},
      {"measurement": "survivor count", "setting": "dose: 4.0 mg/kg/injection, schedule: Q04DX003 (ip), vehicle: water", "value": "8 of 8"},
      {"measurement": "survivor count", "setting": "dose: 4.0 mg/kg/injection, schedule: Q08DX002 (ip), vehicle: water", "value": "8 of 8"},
      {"measurement": "survivor count", "setting": "dose: 8.0 mg/kg/injection, schedule: Q01DX001 (ip), vehicle: water", "value": "8 of 8"},
      {"measurement": "survivor count", "setting": "dose: 8.0 mg/kg/injection, schedule: Q01DX001 (sc), vehicle: water", "value": "8 of 8"},
      {"measurement": "survivor count", "setting": "dose: 8.0 mg/kg/injection, schedule: Q01DX009 (ip), vehicle: other", "value": "8 of 8"},
      {"measurement": "survivor count", "setting": "dose: 8.0 mg/kg/injection, schedule: Q01DX009 (ip), vehicle: water", "value": "8 of 8"},
      {"measurement": "survivor count", "setting": "dose: 8.0 mg/kg/injection, schedule: Q01DX009 (oral), vehicle: water", "value": "5 of 8"},
      {"measurement": "survivor count", "setting": "dose: 8.0 mg/kg/injection, schedule: Q01DX009 (sc), vehicle: water", "value": "8 of 8"},
      {"measurement": "survivor count", "setting": "dose: 8.0 mg/kg/injection, schedule: Q04DX003 (ip), vehicle: water", "value": "8 of 8"},
      {"measurement": "survivor count", "setting": "dose: 8.0 mg/kg/injection, schedule: Q08DX002 (ip), vehicle: water", "value": "8 of 8"},
      {"measurement": "survivor count", "setting": "dose: 16.0 mg/kg/injection, schedule: Q01DX001 (ip), vehicle: water", "value": "8 of 8"},
      {"measurement": "survivor count", "setting": "dose: 16.0 mg/kg/injection, schedule: Q01DX001 (oral), vehicle: water", "value": "8 of 8"},
      {"measurement": "survivor count", "setting": "dose: 16.0 mg/kg/injection, schedule: Q01DX001 (sc), vehicle: water", "value": "8 of 8"},
      {"measurement": "survivor count", "setting": "dose: 16.0 mg/kg/injection, schedule: Q01DX009 (ip), vehicle: other", "value": "8 of 8"},
      {"measurement": "survivor count", "setting": "dose: 16.0 mg/kg/injection, schedule: Q01DX009 (ip), vehicle: water", "value": "8 of 8"},
      {"measurement": "survivor count", "setting": "dose: 16.0 mg/kg/injection, schedule: Q01DX009 (oral), vehicle: water", "value": "7 of 8"},
      {"measurement": "survivor count", "setting": "dose: 16.0 mg/kg/injection, schedule: Q01DX009 (sc), vehicle: water", "value": "8 of 8"},
      {"measurement": "survivor count", "setting": "dose: 16.0 mg/kg/injection, schedule: Q04DX003 (ip), vehicle: water", "value": "8 of 8"},
      {"measurement": "survivor count", "setting": "dose: 16.0 mg/kg/injection, schedule: Q08DX002 (ip), vehicle: water", "value": "8 of 8"},
      {"measurement": "survivor count", "setting": "dose: 32.0 mg/kg/injection, schedule: Q01DX001 (ip), vehicle: water", "value": "8 of 8"},
      {"measurement": "survivor count", "setting": "dose: 32.0 mg/kg/injection, schedule: Q01DX001 (oral), vehicle: water", "value": "8 of 8"},
      {"measurement": "survivor count", "setting": "dose: 32.0 mg/kg/injection, schedule: Q01DX001 (sc), vehicle: water", "value": "8 of 8"},
      {"measurement": "survivor count", "setting": "dose: 32.0 mg/kg/injection, schedule: Q01DX009 (oral), vehicle: water", "value": "8 of 8"},
      {"measurement": "survivor count", "setting": "dose: 32.0 mg/kg/injection, schedule: Q04DX003 (ip), vehicle: water", "value": "8 of 8"},
      {"measurement": "survivor count", "setting": "dose: 32.0 mg/kg/injection, schedule: Q08DX002 (ip), vehicle: water", "value": "8 of 8"},
      {"measurement": "survivor count", "setting": "dose: 64.0 mg/kg/injection, schedule: Q01DX001 (oral), vehicle: water", "value": "5 of 8"},
      {"measurement": "survivor count", "setting": "dose: 64.0 mg/kg/injection, schedule: Q01DX009 (oral), vehicle: water", "value": "5 of 8"},
      {"measurement": "survivor count", "setting": "dose: 128.0 mg/kg/injection, schedule: Q01DX001 (oral), vehicle: water", "value": "7 of 8"},
      {"measurement": "survivor count", "setting": "dose: 256.0 mg/kg/injection, schedule: Q01DX001 (oral), vehicle: water", "value": "7 of 8"}
    ]}
  ]
}
